Patent US10821079B2, “PKC activators and combinations thereof” (Cognitive Research Enterprises, Inc., priority 2011, dated 2020)
For some assays here: For at least one compound, name, drawing or mass did not settle the structure. Some results were stated once for a whole list of compounds, not compound by compound.

Assays:
[1] = test system: primary human cortical neurons; test: Long-term culture of human primary cortical neurons (40 days); assay type: cell-based; conditions: DCPLA-ME 100 nM, bryostatin 0.27 nM, every three days
Experimental: More specifically, human primary cortical neurons were grown in Neuronal Medium (ScienCell Cat No #1521) containing neuronal growth supplement (NGS) (Sciencell Cat No #1562).
Cells were plated on poly-l-lysine (0.001%) coated plates at a density of >10000 cells/cm2. Half of the media was replaced by new media every 3 days. DCPLA-ME or Bryostatin was dissolved in 100% ethanol and added at final concentration (100 nM for DCPLA-ME, 0.27 nM for Bryostatin). Fresh DCPLA-ME (100 nM) or Bryostatin (0.27 nM) was added every 3 days during media change. The experiments were continued for 40 days.
Human primary neurons (ScienCell Research Laboratories, USA) were thawed and plated on poly-L-lysine coated plates at a density of 10,000 cells per cm^2 and were maintained in neuronal medium (DMEM+high glucose+neuronal growth supplement, ScienCell Research Laboratories, USA) following the recommended method. Primary human neurons were then treated with either DCPLA-ME (100 nM) or bryostatin 1 (0.27 nM) for 40 days. Fresh drug was added every third day with 50% media change.

[2] = cited from earlier work
PKC-ε = molecular target: T1, PKC-ε (Homo sapiens, UniProt Q02156); test: Activation of purified PKC isozymes, radiometric: PKC-ε; assay type: biochemical; conditions: low-affinity / high-affinity activator groups
T1 sequence (Q02156 1-737): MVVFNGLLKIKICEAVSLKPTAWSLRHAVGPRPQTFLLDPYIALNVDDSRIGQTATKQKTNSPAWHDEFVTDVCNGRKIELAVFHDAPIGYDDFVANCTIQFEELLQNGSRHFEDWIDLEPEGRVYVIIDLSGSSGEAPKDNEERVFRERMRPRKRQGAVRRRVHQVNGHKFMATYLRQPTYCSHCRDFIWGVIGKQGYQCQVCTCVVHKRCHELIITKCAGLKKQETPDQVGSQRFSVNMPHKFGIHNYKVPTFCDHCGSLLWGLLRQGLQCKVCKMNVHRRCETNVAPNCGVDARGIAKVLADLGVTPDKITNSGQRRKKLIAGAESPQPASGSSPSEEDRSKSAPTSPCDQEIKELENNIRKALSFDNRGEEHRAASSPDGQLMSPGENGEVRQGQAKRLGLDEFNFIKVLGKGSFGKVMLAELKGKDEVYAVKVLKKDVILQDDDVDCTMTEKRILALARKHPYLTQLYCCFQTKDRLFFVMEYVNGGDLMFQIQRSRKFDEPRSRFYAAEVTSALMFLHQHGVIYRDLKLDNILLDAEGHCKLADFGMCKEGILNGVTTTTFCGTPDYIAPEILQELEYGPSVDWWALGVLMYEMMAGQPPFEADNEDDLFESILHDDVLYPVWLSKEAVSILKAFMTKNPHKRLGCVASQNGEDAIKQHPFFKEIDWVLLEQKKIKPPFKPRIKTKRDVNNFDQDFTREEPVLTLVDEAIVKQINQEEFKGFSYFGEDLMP
Experimental: To measure PKC, 10 μl of cell homogenate or purified PKC isoform was incubated for 15 min at 37° C. in the presence of 10 μM histones, 4.89 mM CaCl2, 1.2 μg/μl phosphatidyl-L-serine, 0.18 μg/μl 1,2-dioctanoyl-sn-glycerol, 10 mM MgCl2, 20 mM HEPES (pH 7.4), 0.8 mM EDTA, 4 mM EGTA, 4% glycerol, 8 μg/ml aprotinin, 8 μg/ml leupeptin, and 2 mM benzamidine. [γ32P]ATP (0.5 μCi) was added and 32P-phosphoprotein formation was measured by adsorption onto phosphocellulose as described previously. See Nelson et al., J. Neurochemistry, 1995, 65: 2350-2357.
PKC activity of each compound was measured in the absence of diacylglycerol and phosphatidylserine and PKC-δ and PKC-ε were measured in the absence of added EGTA and CaCl2, as described by Kanno et al., J. Lipid Res., 2006, 47: 1146-1156. […] To determine their PKC isoform specificity, the compounds were pre-incubated with purified isoforms of PKC for five minutes and the PKC activity was measured radiometrically.
The activation and PKC isozyme specificity of DCPLA-ethyl ester was measured following the procedures in Example 1(B) and (C), except that 9 ng of the purified isozyme was used and it was pre-incubated for 5 minutes at room temperature (FIG. 3). PKC-ε activation by DCPLA-tert-butyl ester and DCPLA-retinyl ester was measured in the same manner as DCPLA-ethyl ester (FIG. 3). […]

PKC = conditions: K562 cells; cited from earlier work
[3] = test system: cyclin dependent kinase 2 (Cdk2); conditions: at 5 ng/ml; cited from earlier work

Question: For `CCC/C=C/C=C/C(=O)O[C@H]1/C(=C/C(=O)OC)C[C@H]2C[C@H]([C@@H](C)O)OC(=O)C[C@H](O)C[C@@H]3C[C@H](OC(C)=O)C(C)(C)C(O)(C[C@@H]4C/C(=C/C(=O)OC)C[C@H](/C=C/C(C)(C)[C@]1(O)O2)O4)O3` [Bryostatin-1], which neuronal survival [1] is on record?
Answer: The neuronal survival was “at least 40 days”.

Question: For `CCC/C=C/C=C/C(=O)O[C@H]1/C(=C/C(=O)OC)C[C@H]2C[C@H]([C@@H](C)O)OC(=O)C[C@H](O)C[C@@H]3C[C@H](OC(C)=O)C(C)(C)[C@](O)(C[C@@H]4C/C(=C/C(=O)OC)C[C@H](/C=C/C(C)(C)[C@]1(O)O2)O4)O3` [Bryostatin-1], which “t1/2, slow dissociation kinetics / elimination from the brain” value [2] is on record?
Answer: The value was > 12 h.

Question: For `CCCCCC1CC1CC1CC1CCCCCCCC(=O)OC/C=C(C)/C=C/C=C(C)/C=C/C1=C(C)CCCC1(C)C` (centres unmarked) [DCPLA-retinyl ester], which “concentrations that generally activate PKC-ε” value (PKC-ε) is on record?
Answer: The value was 100 to 1000 nM.

Question: Which “concentration acting as PKC activator” value (PKC) does the source give for `C=C(C)[C@@]12C[C@@H](COC(=O)c3ccccc3)[C@@]34OC5(O[C@@H]1[C@@H]3[C@@H]1O[C@]1(CO)[C@@H](O)[C@@]1(O)[C@H]4[C@H]([C@H](C)[C@@H]1OC(=O)c1ccccc1)[C@H](C)CCCCCC[C@H]5O)O2` [Gnidimacrin] here?
Answer: Its value is 0.3 nM.

Question: What about the “inhibition of Cdk2” value [3] of the same compound?
Answer: Its value is 100%.
